Measurements from the supplement of paper PMC12823440, “Inhibitors supercharge kinase turnover through native proteolytic circuits” (Nature, 2025).
The other results are listed elsewhere or left out. The calls rarely recur for the same compound in another form.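 Kinases, fused to nanoluciferase, were expressed in K562 cells; luminescence was measured every 4 h from 2 to 18 h as percent of control (DMSO = 100%, positive control = 0%). A time point is decreased if signal falls significantly (2 sigma). Hits were called by the authors by a rule that is not shown; the count of time points alone does not decide it.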

The chains behind the UniProt entries cited, without tags or fusion partners. Where a name states a change or a piece, a line headed by the entry shows the natural chain unless it says otherwise.
UniProt P31749: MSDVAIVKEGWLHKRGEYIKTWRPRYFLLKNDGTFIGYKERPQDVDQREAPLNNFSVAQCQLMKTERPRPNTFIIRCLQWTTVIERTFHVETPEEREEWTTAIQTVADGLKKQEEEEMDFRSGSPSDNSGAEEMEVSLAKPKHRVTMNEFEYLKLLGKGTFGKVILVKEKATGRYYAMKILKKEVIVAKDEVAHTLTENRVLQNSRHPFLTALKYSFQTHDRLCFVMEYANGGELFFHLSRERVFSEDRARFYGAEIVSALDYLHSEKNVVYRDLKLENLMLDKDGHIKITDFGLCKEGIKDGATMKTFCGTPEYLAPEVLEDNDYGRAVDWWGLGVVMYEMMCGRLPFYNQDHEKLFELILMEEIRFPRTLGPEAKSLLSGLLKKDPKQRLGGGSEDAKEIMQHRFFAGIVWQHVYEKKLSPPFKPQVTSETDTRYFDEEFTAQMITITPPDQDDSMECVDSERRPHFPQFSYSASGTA
UniProt Q9UM73: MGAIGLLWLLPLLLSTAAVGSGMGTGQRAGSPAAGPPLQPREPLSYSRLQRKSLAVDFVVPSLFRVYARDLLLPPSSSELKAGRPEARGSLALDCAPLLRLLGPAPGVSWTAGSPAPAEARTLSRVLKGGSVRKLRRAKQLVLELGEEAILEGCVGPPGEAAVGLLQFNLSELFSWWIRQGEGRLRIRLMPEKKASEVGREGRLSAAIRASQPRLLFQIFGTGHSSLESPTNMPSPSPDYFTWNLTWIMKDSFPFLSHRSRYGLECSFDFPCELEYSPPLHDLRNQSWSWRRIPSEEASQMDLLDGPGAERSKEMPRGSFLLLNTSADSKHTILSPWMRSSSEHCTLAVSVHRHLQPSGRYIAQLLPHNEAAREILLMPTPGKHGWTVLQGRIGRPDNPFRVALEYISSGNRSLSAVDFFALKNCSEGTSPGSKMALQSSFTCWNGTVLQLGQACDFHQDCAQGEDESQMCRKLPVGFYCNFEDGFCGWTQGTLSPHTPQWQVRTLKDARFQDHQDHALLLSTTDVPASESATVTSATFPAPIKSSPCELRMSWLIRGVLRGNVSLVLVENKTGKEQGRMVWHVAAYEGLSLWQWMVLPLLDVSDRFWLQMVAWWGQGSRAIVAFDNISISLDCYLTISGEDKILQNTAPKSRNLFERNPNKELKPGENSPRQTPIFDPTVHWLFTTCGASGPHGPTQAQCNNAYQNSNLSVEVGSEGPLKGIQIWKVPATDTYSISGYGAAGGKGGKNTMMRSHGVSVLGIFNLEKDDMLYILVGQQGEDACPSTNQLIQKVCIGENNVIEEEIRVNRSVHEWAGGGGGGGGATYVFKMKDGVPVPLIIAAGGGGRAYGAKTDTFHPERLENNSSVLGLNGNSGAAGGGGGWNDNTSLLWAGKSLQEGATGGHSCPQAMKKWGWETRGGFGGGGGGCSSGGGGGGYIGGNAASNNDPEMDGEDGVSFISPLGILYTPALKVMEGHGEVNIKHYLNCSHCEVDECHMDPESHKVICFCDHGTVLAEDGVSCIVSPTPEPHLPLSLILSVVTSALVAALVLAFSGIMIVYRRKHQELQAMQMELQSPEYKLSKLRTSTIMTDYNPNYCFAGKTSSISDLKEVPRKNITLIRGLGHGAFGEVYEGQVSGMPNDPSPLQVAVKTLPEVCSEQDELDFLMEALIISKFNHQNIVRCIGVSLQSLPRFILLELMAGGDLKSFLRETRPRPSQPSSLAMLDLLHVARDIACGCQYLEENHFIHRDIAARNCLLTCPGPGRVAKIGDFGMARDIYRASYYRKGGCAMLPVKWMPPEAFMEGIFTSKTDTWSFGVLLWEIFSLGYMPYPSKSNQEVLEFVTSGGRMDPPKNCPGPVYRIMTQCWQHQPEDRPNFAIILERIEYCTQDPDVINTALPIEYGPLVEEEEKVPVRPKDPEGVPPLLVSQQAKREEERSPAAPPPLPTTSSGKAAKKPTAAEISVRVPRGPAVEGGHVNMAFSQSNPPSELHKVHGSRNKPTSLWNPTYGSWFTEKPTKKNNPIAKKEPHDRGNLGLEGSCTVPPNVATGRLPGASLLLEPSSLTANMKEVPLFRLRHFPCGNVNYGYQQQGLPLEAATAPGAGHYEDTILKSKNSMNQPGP
UniProt P10398: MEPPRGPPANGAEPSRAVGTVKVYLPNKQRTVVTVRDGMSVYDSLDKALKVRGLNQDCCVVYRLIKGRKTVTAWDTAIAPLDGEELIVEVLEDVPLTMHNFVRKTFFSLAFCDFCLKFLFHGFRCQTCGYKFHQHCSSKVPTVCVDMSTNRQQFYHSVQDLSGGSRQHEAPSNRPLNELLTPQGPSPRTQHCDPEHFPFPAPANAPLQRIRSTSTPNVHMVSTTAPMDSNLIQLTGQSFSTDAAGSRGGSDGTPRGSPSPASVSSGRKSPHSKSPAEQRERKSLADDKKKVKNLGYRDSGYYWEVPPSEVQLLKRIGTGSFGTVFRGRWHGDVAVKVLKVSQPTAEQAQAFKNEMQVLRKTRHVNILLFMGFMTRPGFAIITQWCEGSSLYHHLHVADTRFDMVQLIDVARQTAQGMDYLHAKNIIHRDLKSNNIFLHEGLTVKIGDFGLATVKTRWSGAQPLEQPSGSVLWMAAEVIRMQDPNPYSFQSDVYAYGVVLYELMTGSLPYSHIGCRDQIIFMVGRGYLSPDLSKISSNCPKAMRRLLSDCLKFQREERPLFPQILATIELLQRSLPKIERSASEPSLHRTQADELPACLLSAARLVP
UniProt O14965: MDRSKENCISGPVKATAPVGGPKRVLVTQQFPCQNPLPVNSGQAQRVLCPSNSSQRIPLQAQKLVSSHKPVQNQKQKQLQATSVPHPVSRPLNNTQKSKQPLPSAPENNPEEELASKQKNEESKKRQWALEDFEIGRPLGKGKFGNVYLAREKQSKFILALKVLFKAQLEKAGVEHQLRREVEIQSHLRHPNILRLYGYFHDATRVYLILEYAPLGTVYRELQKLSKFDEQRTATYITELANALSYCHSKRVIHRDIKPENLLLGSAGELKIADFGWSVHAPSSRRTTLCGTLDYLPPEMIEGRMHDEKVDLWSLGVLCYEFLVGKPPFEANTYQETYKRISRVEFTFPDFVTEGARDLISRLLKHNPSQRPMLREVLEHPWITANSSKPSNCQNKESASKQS
UniProt Q96GD4, whole entry: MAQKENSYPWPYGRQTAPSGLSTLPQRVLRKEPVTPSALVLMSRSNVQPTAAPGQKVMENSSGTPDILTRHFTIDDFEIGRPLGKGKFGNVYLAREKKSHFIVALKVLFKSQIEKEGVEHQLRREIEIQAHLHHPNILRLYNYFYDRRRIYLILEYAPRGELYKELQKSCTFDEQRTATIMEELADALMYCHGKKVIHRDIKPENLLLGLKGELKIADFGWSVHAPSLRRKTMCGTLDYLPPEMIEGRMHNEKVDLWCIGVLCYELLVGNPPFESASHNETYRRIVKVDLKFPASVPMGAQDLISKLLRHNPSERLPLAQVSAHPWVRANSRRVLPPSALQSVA
UniProt Q9UQB9: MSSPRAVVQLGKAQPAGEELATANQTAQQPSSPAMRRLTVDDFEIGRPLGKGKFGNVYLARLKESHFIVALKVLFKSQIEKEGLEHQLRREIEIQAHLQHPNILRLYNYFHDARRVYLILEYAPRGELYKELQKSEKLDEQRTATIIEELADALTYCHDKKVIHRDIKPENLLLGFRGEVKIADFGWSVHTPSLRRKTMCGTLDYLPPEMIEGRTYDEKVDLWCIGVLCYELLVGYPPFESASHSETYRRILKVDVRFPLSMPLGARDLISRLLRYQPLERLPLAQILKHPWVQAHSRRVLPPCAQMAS
UniProt P51451: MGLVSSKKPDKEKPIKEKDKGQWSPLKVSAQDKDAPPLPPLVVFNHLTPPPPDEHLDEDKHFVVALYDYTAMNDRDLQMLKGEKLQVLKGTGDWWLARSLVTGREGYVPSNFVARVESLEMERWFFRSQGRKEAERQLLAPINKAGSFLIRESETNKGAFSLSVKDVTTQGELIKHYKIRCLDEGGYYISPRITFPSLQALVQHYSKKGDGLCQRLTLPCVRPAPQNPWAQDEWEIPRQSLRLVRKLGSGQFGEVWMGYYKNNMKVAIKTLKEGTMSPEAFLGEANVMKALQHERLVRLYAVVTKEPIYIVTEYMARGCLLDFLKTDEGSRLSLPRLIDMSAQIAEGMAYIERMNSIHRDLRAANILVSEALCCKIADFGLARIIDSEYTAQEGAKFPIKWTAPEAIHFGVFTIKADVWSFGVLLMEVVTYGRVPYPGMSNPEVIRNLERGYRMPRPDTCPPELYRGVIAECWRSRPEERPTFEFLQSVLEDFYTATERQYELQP
UniProt P51813: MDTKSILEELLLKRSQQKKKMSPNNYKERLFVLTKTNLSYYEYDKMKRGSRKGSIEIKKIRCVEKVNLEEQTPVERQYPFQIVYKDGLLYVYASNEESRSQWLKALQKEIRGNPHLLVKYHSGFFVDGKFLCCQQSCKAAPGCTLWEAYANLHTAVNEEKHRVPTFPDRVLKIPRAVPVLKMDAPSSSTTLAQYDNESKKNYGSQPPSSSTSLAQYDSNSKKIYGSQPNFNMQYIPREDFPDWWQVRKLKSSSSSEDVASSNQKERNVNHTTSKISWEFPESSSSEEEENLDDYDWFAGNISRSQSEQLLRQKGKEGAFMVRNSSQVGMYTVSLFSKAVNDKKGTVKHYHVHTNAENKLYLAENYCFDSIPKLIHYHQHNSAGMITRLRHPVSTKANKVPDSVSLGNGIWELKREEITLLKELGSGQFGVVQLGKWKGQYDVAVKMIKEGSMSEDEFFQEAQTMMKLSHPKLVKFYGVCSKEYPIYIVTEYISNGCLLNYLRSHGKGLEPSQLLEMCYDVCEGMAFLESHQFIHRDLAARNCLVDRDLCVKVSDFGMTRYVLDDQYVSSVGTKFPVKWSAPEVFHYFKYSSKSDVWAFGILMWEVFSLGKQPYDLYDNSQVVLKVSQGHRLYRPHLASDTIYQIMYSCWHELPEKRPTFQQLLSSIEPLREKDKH
UniProt P15056, whole entry, looked up: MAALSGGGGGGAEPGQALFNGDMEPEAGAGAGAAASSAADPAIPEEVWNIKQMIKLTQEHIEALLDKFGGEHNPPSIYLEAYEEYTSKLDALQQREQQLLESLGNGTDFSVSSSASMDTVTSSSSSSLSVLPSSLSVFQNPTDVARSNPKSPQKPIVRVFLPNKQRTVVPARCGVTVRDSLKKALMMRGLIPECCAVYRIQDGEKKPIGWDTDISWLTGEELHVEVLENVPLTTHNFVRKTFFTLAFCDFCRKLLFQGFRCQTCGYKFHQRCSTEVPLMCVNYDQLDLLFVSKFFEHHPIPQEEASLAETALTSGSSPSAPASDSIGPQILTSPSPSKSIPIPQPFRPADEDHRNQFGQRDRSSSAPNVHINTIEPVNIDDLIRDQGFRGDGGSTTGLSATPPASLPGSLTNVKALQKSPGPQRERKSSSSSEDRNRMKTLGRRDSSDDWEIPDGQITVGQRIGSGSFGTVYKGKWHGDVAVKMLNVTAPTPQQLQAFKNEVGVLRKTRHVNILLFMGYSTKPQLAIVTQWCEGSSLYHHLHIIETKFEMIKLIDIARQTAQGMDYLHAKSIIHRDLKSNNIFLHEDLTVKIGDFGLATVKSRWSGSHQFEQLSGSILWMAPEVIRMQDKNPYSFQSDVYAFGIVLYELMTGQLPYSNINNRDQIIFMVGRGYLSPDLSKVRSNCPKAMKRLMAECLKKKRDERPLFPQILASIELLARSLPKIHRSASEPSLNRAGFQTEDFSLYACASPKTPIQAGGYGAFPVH

Tests used:
Assay in all cases: kinase-Nluc reporter destabilization hit call (1 = scored as downregulated) (binary); higher = compound decreases kinase abundance
Conditions in all cases: K562; 2-18 h
ABL1 = ABL1 (UniProt P00519)
AKT1 = AKT1 (UniProt P31749)
ALK = ALK (UniProt Q9UM73)
ARAF = ARAF (UniProt P10398)
AURKA = AURKA (UniProt O14965)
AURKB = AURKB (UniProt Q96GD4)
AURKC = AURKC (UniProt Q9UQB9)
BLK = BLK (UniProt P51451)
BMX = BMX (UniProt P51813)
BRAF = BRAF (UniProt P15056)

Measured: kinase-Nluc reporter destabilization hit call

COc1ccc2c(Oc3ccc4c(C(=O)Nc5ccccc5N)cccc4c3)ccnc2c1 [Chiauranib] (10 µM)
inactive: ABL1 = 0 | AKT1 = 0 | ALK 0 | ARAF 0 | AURKA 0 | AURKB 0 | AURKC 0 | BLK 0 | BMX 0 | BRAF 0

CO[C@H]1CC[C@H](N2C(=O)CNc3ncc(-c4ccc(C(C)(C)O)nc4)nc32)CC1 (2.5 µM)
inactive: ABL1 = 0 | AKT1 = 0 | ALK 0 | ARAF 0 | AURKA 0 | AURKB 0 | AURKC 0 | BLK 0 | BMX 0 | BRAF 0

C[C@@H]1O[C@@H](Oc2cc(O)c3c(=O)c(O[C@@H]4O[C@@H](C)[C@H](O)[C@@H](O)[C@H]4O)c(-c4ccc(O)cc4)oc3c2)[C@H](O)[C@H](O)[C@H]1O [Kaempferitrin] (10 µM)
inactive: ABL1 = 0 | AKT1 = 0 | ALK 0 | ARAF 0 | AURKA 0 | AURKB 0 | AURKC 0 | BLK 0 | BMX 0 | BRAF 0

COc1cc(-c2oc3cc(O)cc(O)c3c(=O)c2O)ccc1O [Isorhamnetin] (10 µM)
inactive: ABL1 = 0 | AKT1 = 0 | ALK 0 | ARAF 0 | AURKA 0 | AURKB 0 | AURKC 0 | BLK 0 | BMX 0 | BRAF 0
